The shares of active, inactive and inconclusive entries below differ from those in the screen. For some assays here: A potency beside an inconclusive call is a rough fit, not a confirmed value. Active and inactive are the calls of the source. The call rests on the fitted dose curve; in most records, active means well fitted curve in the direction sought with a large enough effect; inconclusive means small, poorly fitted or top-dose-only effect, or another doubt; inactive means no such curve, though single readings can be large; an effect the other way counts as inactive or inconclusive.
Experiments:
[1] = Quantitative High-Throughput drug screen in 47 multiple myeloma cell lines against the NCATS MIPE library collection: JIM1_ECACC cell viability assay (AID 1918964; further: potency means the concentration at half of the fitted maximal effect); settings: JIM1 myeloma viability, CellTiter-Glo ATP luminescence, 48 h; viability (% of DMSO): at 45.8 µM (top of the series)
Method in brief: (§1)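 qHTS of the MIPE 4.0 collection: 500 myeloma cells/well, 48 h drug exposure at 37C in 5% CO2, then CellTiter-Glo for 5 min at room temperature before luminescence reading.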

[2] = Quantitative High-Throughput drug screen in 47 multiple myeloma cell lines against the NCATS MIPE library collection: KMS27_JCRB cell viability assay (AID 1918970); settings: KMS27 myeloma cells, CellTiter-Glo ATP viability, 48 h; viability (% of DMSO): at 45.8 µM (top of the series); further: nearly all actives have a fitted effect of over 30% in size; further: potency means the concentration at half of the fitted maximal effect
Method in brief: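 Viability inhibition screen, 48 h compound exposure, luminescent ATP read-out.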

[3] = Quantitative High-Throughput drug screen in 47 multiple myeloma cell lines against the NCATS MIPE library collection: KMS12PE_JCRB cell viability assay (AID 1918972); settings: KMS12PE myeloma viability, CellTiter-Glo ATP, 48 h; viability: at 45.8 µM (top of the series); further: nearly all actives have a fitted effect of over 30% in size; further: potency means the concentration at half of the fitted maximal effect
Method in brief: (§2)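 We plated 500 myeloma cells per well, pinned in MIPE 4.0 compounds, and incubated for 48 hours at 37C. ATP was then quantified with CellTiter-Glo, with DMSO and media-only wells defining 100% and 0%.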

[4] = Quantitative High-Throughput drug screen in 47 multiple myeloma cell lines against the NCATS MIPE library collection: KMS20_JCRB cell viability assay (AID 1918973); settings: CellTiter-Glo ATP, 48 h; viability (% of DMSO): at 45.8 µM (top of the series); further: nearly all actives have a fitted effect of over 45% in size; further: potency means the concentration at half of the fitted maximal effect
Method in brief: as §1

[5] = Quantitative High-Throughput drug screen in 47 multiple myeloma cell lines against the NCATS MIPE library collection: KMS21BM_JCRB cell viability assay (AID 1918974); settings: ATP luminescence, 48 h; viability: at 45.8 µM (top of the series) unless noted; further: potency means the concentration at half of the fitted maximal effect
Method in brief: as §1

[6] = Quantitative High-Throughput drug screen in 47 multiple myeloma cell lines against the NCATS MIPE library collection: MOLP8_DSMZ cell viability assay (AID 1918977); settings: MOLP8 myeloma viability, CellTiter-Glo ATP luminescence, 48 h; viability (% of control): at 45.8 µM (top of the series); further: nearly all actives have a fitted effect of over 45% in size; further: potency means the concentration at half of the fitted maximal effect
Method in brief: (§3)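 Plated at 500 cells per well, myeloma lines received MIPE 4.0 compounds by pin tool. Following 48 h culture at 37 °C, CellTiter-Glo luminescence gave viability relative to DMSO and media-only controls.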

[7] = Quantitative High-Throughput drug screen in 47 multiple myeloma cell lines against the NCATS MIPE library collection: OCIMY1_PLB cell viability assay (AID 1918979); further: nearly all actives have a fitted effect of over 35% in size; further: potency means the concentration at half of the fitted maximal effect
Method in brief: as §3

[8] = Quantitative High-Throughput drug screen in 47 multiple myeloma cell lines against the NCATS MIPE library collection: KMS12BM_JCRB cell viability assay (AID 1918971); further: potency means the concentration at half of the fitted maximal effect; nearly all actives have a fitted effect of over 35% in size
Method in brief: (§4)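 Relative luminescence from CellTiter-Glo served as the viability signal, referenced to DMSO-treated (100%) and cell-free medium (0%) controls. Treatment lasted 48 hours at 37C with 500 cells per well.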

[9] = Quantitative High-Throughput drug screen in 47 multiple myeloma cell lines against the NCATS MIPE library collection: KMS28PE_JCRB cell viability assay (AID 1918983); further: nearly all actives have a fitted effect of over 35% in size; further: potency means the concentration at half of the fitted maximal effect
Method in brief: as §3

[10] = Quantitative High-Throughput drug screen in 47 multiple myeloma cell lines against the NCATS MIPE library collection: H1112_PLB cell viability assay (AID 1918967; further: potency means the concentration at half of the fitted maximal effect; nearly all actives have a fitted effect of over 30% in size); settings: H1112 myeloma cells viability, ATP luminescence, 48 h; viability: at 45.8 µM (top of the series)
Method in brief: as §1

[11] = Quantitative High-Throughput drug screen in 47 multiple myeloma cell lines against the NCATS MIPE library collection: Karpas25_ECACC cell viability assay (AID 1918968; further: nearly all actives have a fitted effect of over 35% in size; further: potency means the concentration at half of the fitted maximal effect); settings: Karpas25 myeloma viability, CellTiter-Glo ATP, 48 h; viability (% of control): at 45.8 µM (top of the series)
Method in brief: as §1

[12] = Quantitative High-Throughput drug screen in 47 multiple myeloma cell lines against the NCATS MIPE library collection: LP1_DSMZ cell viability assay (AID 1918982)
Method in brief: as §3

[13] = Quantitative High-Throughput drug screen in 47 multiple myeloma cell lines against the NCATS MIPE library collection: NCIH929_DSMZ cell viability assay (AID 1918978)
Method in brief: as §3

[14] = Quantitative High-Throughput drug screen in 47 multiple myeloma cell lines against the NCATS MIPE library collection: MM1S_ATCC cell viability assay (AID 1918980); further: potency means the concentration at half of the fitted maximal effect; nearly all actives have a fitted effect of over 45% in size
Method in brief: as §3

[15] = Quantitative High-Throughput drug screen in 47 multiple myeloma cell lines against the NCATS MIPE library collection: MM1R_ATCC cell viability assay (AID 1918981); further: nearly all actives have a fitted effect of over 35% in size; further: potency means the concentration at half of the fitted maximal effect
Method in brief: as §3

[16] = Quantitative High-Throughput drug screen in 47 multiple myeloma cell lines against the NCATS MIPE library collection: MMM1_PLB cell viability assay (AID 1918976); further: nearly all actives have a fitted effect of over 35% in size; further: potency means the concentration at half of the fitted maximal effect
Method in brief: as §3

[17] = Quantitative High-Throughput drug screen in 47 multiple myeloma cell lines against the NCATS MIPE library collection: KMS26_JCRB cell viability assay (AID 1918975); settings: KMS26 myeloma cells viability, CellTiter-Glo ATP, 48 h; viability (% of DMSO): at 45.8 µM (top of the series); further: potency means the concentration at half of the fitted maximal effect; nearly all actives have a fitted effect of over 45% in size
Method in brief: as §4

[18] = Quantitative High-Throughput drug screen in 47 multiple myeloma cell lines against the NCATS MIPE library collection: JJN3_DSMZ cell viability assay (AID 1918966; further: potency means the concentration at half of the fitted maximal effect; nearly all actives have a fitted effect of over 50% in size); settings: JJN3 myeloma cells viability, CellTiter-Glo ATP, 48 h; viability, % of DMSO: at 45.8 µM (top of the series)
Method in brief: as §1

[19] = Quantitative High-Throughput drug screen in 47 multiple myeloma cell lines against the NCATS MIPE library collection: INA6_PLB cell viability assay (AID 1918965; further: nearly all actives have a fitted effect of over 55% in size); settings: INA6 myeloma viability, CellTiter-Glo ATP luminescence, 48 h; viability (% of control): at 45.8 µM (top of the series)
Method in brief: as §2

CN1CCN(Cc2ccc(NC(=O)Nc3ccc(Oc4cc(NC(=O)C5CC5)ncn4)cc3)cc2C(F)(F)F)CC1
inconclusive: Potency [1] 0.0118 µM [rising, full curve, poor fit] | Potency [2] 1.66 µM [rising, full curve, poor fit] | Potency [5] 1.18 µM [rising, full curve, poor fit]
inactive: Potency [3]
active: Potency [4] 0.132 µM | Potency [6] 0.332 µM | Potency [7] 1.18 µM

CC(C)=CC[C@@H](O)C1=CC(=O)c2c(O)ccc(O)c2C1=O
active: Potency [8] 0.935 µM | Potency [3] 18.7 µM | Potency [7] 1.18 µM | Potency [9] 1.05 µM
inconclusive: Potency [1] 37.2 µM [cytotoxic, single point]

CN(C)C(=O)C(CCN1CCC(O)(c2ccc(Cl)cc2)CC1)(c1ccccc1)c1ccccc1
inconclusive: Potency [1] 0.001 µM [cytotoxic] | Potency [10] 16.6 µM [cytotoxic, partial curve] | Potency [8] 18.7 µM [cytotoxic, partial curve] | Potency [5] 3.72 µM [cytotoxic, partial curve, poor fit] | Potency [7] 33.2 µM [cytotoxic, partial curve, poor fit] | Potency [12] 18.7 µM [cytotoxic, partial curve]
inactive: Potency [3]
active: Potency [11] 18.7 µM

O=c1c(O)c(-c2cc(O)c(O)c(O)c2)oc2cc(O)cc(O)c12
inactive: Potency [3] | Potency [4] | Potency [7]
active: Potency [6] 18.7 µM | Potency [15] 20.9 µM
inconclusive: Potency [1] 3.72 µM [cytotoxic, full curve, poor fit] | Potency [11] 13.2 µM [cytotoxic, partial curve, poor fit] | Potency [5] 23.5 µM [rising, partial curve] | Potency [13] 13.2 µM [cytotoxic, partial curve, poor fit] | Potency [14] 33.2 µM [cytotoxic, single point] | Potency [12] 26.4 µM [cytotoxic, single point]

CCCOc1ccc2nc(NC(=O)OC)[nH]c2c1
active: Potency [16] 1.32 µM
inconclusive: viability (% of DMSO) [1] 26.2% [cytotoxic] | Potency [10] 0.0418 µM [cytotoxic, full curve] | viability (% of DMSO) [2] 52.3% [cytotoxic] | viability [3] 28.2% [cytotoxic] | Potency [4] 0.0372 µM [cytotoxic, full curve, poor fit] | Potency [6] 2.09 µM [cytotoxic, partial curve] | Potency [7] 0.0235 µM [cytotoxic, full curve] | Potency [14] 0.0132 µM [cytotoxic, full curve, poor fit] | Potency [12] 0.0332 µM [cytotoxic, full curve]

O=c1cc(N2CCOCC2)oc2c(-c3cccc4c3sc3ccccc34)cccc12
active: Potency [1] 2.96 µM | Potency [10] 16.6 µM | Potency [8] 16.6 µM | Potency [4] 13.2 µM | Potency [17] 20.9 µM
inconclusive: Potency [5] 2.64 µM [cytotoxic, full curve, poor fit] | Potency [7] 9.35 µM [cytotoxic, single point] | Potency [14] 6.62 µM [cytotoxic, full curve, poor fit] | Potency [12] 20.9 µM [cytotoxic, partial curve]

NC(=O)c1ccc(N(C(N)=O)c2c(F)cccc2F)nc1-c1ccc(F)cc1F
inactive: Potency [2] | Potency [3] | Potency [16] | Potency [15] | Potency [9]
inconclusive: Potency [18] 1.18 µM [cytotoxic, full curve, poor fit] | Potency [8] 0.0026 µM [rising, full curve, poor fit] | Potency [4] 7.43 µM [rising, single point] | Potency [17] 0.0264 µM [cytotoxic, full curve, poor fit] | Potency [6] 0.526 µM [cytotoxic, full curve, poor fit] | Potency [14] 29.6 µM [cytotoxic, single point]

CCC[C@H](N[C@@H](C)C(=O)N1[C@@H]2CCCC[C@H]2C[C@H]1C(=O)O)C(=O)OCC
inconclusive: Potency [18] 23.5 µM [cytotoxic, partial curve, poor fit] | Potency [8] 5.9 µM [cytotoxic, partial curve, poor fit] | Potency [4] 2.64 µM [cytotoxic, full curve, poor fit] | Potency [17] 0.0296 µM [cytotoxic, full curve, poor fit] | Potency [16] 16.6 µM [cytotoxic, partial curve, poor fit] | Potency [7] 0.0013 µM [cytotoxic, full curve, poor fit] | Potency [15] 23.5 µM [cytotoxic, partial curve, poor fit] | Potency [12] 0.0012 µM [cytotoxic, full curve, poor fit]
inactive: Potency [19] | Potency [11] | Potency [5] | Potency [6] | Potency [9]
